According to paper PMC2726289:

Target: GTPase Regulator Associated with Focal Adhesion Kinase-1 (GRAF1) (rat (endogenous in rat brain))
Assay: co-IP; GRAF1 immunoprecipitated from rat brain cytosol via Ab2; Dynamin1 identified by mass spectrometry and confirmed by immunoblot

B1: Dynamin1 (rat brain cytosol) (protein, UniProt P21575 1-864)
chain: MGNRGMEDLIPLVNRLQDAFSAIGQNADLDLPQIAVVGGQSAGKSSVLENFVGRDFLPRGSGIVTRRPLVLQLVNSTTEYAEFLHCKGKKFTDFEEVRLEIEAETDRVTGTNKGISPVPINLRVYSPHVLNLTLVDLPGMTKVPVGDQPPDIEFQIRDMLMQFVTKENCLILAVSPANSDLANSDALKIAKEVDPQGQRTIGVITKLDLMDEGTDARDVLENKLLPLRRGYIGVVNRSQKDIDGKKDITAALAAERKFFLSHPSYRHLADRMGTPYLQKVLNQQLTNHIRDTLPGLRNKLQSQLLSIEKEVDEYKNFRPDDPARKTKALLQMVQQFAVDFEKRIEGSGDQIDTYELSGGARINRIFHERFPFELVKMEFDEKELRREISYAIKNIHGIRTGLFTPDLAFEATVKKQVQKLKEPSIKCVDMVVSELTSTIRKCSEKLQQYPRLREEMERIVTTHIREREGRTKEQVMLLIDIELAYMNTNHEDFIGFANAQQRSNQMNKKKTSGNQDEILVIRKGWLTINNIGIMKGGSKEYWFVLTAENLSWYKDDEEKEKKYMLSVDNLKLRDVEKGFMSSKHIFALFNTEQRNVYKDYRQLELACETQEEVDSWKASFLRAGVYPERVGDKEKASETEENGSDSFMHSMDPQLERQVETIRNLVDSYMAIVNKTVRDLMPKTIMHLMINNTKEFIFSELLANLYSCGDQNTLMEESAEQAQRRDEMLRMYHALKEALSIIGDINTTTVSTPMPPPVDDSWLQVQSVPAGRRSPTSSPTPQRRAPAVPPARPGSRGPAPGPPPAGSALGGAPPVPSRPGASPDPFGPPPQVPSRPNRAPPGVPSRSGQASPSRPESPRPPFDL
binding: binds

Results are given in words; binding and its absence hold for the method and conditions named. In cells and extracts the contact can be indirect. Binding calls can cover weak binding; strength is not graded here.
